For some assays here: For at least one compound, name, drawing or mass did not settle the structure. Some of these results come from one statement about several compounds together.
Assays:
human EP4 receptor = target: T1, human EP4 receptor (Homo sapiens, UniProt P35408); assay: Agonist activity measurement (cAMP production) using human EP4 receptor expressing HEK293 cells; assay type: cell-based; conditions: test compound concentration of 10 μM, HEK293 stably expressing human EP4
T1 construct: expressed in transfected cells
Method: Agonist Activity Measurement Using Human EP4 Receptor Expressing Cells
In order to investigate EP4 receptor agonist activity of the compounds of the present invention, cAMP production was measured by using HEK293 in which the human EP4 receptor was stably expressed.
As a result of searching for prostaglandin E receptors using Refseq Database, the gene information of human EP4 (NM_000958) receptor was obtained. On the basis of the sequence information, the human EP4 receptor gene was cloned by PCR using human cDNA as a template in a conventional manner to establish HEK293 in which the human EP4 receptor was stably expressed. These cells were inoculated on a 96-well poly-D-lysine coated plate at a density of 2×10^4 cells/well, and cultured for 1 day. The medium in the wells was removed by aspiration, 80 μL of Dulbecco's modified Eagle's medium was added to each well, and the cells were incubated at 37° C. for 15 minutes. […] Then, the cells were incubated at 37° C. for 30 minutes, and used as a sample for cAMP quantification. By using this sample, amount of cAMP in the sample was quantified according to the method attached to cAMP Screen Kit.

Sequences of proteins named here, by UniProt entry; tags and fusion partners are left off. A change or cut given only in a name is not applied to a line headed by its entry.
UniProt P35408: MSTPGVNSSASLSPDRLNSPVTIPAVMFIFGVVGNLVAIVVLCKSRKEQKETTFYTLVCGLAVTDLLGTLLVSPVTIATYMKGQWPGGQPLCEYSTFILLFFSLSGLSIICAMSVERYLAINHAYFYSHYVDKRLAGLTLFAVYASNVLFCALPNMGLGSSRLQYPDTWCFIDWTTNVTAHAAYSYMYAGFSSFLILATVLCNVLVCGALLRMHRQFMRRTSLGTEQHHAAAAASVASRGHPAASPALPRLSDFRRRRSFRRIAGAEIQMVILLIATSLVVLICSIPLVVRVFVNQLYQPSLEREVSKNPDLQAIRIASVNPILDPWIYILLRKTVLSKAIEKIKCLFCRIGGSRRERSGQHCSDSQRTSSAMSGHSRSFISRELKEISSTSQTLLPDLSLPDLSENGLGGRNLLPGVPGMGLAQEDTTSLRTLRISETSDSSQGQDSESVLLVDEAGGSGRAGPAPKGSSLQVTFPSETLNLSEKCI

[1] = tested on: partial cranial bone defect model rats; assay: Bone regeneration promoting action in partial cranial bone defect model rats; assay type: in vivo, rat; conditions: 1 μg/individual, local, fibrin gel, three weeks

SMILES: COC(=O)c1ccc(CCN2C(=O)CCCN2CCC(O)Cc2cccc(C(F)(F)F)c2)cc1 (centres unmarked) [IAH-E001, methyl 4-[2-(2-{3-hydroxy-4-[3-(trifluoromethyl)phenyl]butyl}-6-oxotetrahydropyridazin-1-yl)ethyl]benzoate]
- increase of cAMP (human EP4 receptor): Increase of cAMP was observed

SMILES: O=C(O)c1ccc(CCN2C(=O)CCCN2CCC(O)Cc2cccc(C(F)(F)F)c2)cc1 (centres unmarked) [IAH-H001a, 4-[2-(2-{3-hydroxy-4-[3-(trifluoromethyl)-phenyl]butyl}-6-oxotetrahydropyridazin-1-yl)ethyl]benzoic acid]
- osteoanagenesis (ratio of osteoanagenesis region to total defect region) [1]: 20% to 60%

From patent US7531533B2, “6-Membered heterocyclic compound and use thereof” (Asahi Kasei Pharma Corporation, priority 2005, dated 2009)
